# Reference: paper PMC8358048
# By UniProt entry, the sequences of proteins in these tests, tags left out. Where a name states a change or a piece, a line headed by the entry shows the natural chain unless it says otherwise. Chains listed by the source or under a name are the forms on record and can include a tag or linker. Residues count along the entry.
# UNC5B-FL (Unc-5 Netrin Receptor B, isoform with exon 8), GFP-tagged (Q8K1S3, residues 27-945): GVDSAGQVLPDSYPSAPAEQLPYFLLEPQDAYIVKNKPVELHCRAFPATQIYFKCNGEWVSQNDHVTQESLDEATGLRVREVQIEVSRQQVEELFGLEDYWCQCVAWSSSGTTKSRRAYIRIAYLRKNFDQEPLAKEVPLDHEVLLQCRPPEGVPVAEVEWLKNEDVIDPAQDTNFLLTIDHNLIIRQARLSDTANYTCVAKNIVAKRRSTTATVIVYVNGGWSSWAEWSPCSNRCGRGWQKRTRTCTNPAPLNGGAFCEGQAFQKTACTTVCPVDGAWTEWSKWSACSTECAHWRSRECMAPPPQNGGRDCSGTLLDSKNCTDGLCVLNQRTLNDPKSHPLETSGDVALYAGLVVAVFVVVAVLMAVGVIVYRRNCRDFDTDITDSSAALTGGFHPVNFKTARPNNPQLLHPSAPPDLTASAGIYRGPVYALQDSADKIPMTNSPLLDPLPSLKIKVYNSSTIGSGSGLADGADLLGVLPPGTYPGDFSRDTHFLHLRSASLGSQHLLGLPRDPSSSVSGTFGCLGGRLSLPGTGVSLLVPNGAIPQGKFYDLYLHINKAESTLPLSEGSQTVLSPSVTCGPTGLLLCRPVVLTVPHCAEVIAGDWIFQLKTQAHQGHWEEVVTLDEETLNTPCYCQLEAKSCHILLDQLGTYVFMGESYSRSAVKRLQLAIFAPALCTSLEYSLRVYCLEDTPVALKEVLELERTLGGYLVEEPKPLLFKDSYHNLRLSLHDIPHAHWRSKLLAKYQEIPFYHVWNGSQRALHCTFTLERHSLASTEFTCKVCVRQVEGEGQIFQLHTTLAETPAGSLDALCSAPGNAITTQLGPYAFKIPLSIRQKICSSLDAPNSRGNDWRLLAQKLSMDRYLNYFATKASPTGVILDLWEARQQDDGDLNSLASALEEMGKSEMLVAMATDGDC
# UNC5B-Δ8 (UNC5B splicing isoform lacking exon 8), GFP-tagged (Q8K1S3, form named): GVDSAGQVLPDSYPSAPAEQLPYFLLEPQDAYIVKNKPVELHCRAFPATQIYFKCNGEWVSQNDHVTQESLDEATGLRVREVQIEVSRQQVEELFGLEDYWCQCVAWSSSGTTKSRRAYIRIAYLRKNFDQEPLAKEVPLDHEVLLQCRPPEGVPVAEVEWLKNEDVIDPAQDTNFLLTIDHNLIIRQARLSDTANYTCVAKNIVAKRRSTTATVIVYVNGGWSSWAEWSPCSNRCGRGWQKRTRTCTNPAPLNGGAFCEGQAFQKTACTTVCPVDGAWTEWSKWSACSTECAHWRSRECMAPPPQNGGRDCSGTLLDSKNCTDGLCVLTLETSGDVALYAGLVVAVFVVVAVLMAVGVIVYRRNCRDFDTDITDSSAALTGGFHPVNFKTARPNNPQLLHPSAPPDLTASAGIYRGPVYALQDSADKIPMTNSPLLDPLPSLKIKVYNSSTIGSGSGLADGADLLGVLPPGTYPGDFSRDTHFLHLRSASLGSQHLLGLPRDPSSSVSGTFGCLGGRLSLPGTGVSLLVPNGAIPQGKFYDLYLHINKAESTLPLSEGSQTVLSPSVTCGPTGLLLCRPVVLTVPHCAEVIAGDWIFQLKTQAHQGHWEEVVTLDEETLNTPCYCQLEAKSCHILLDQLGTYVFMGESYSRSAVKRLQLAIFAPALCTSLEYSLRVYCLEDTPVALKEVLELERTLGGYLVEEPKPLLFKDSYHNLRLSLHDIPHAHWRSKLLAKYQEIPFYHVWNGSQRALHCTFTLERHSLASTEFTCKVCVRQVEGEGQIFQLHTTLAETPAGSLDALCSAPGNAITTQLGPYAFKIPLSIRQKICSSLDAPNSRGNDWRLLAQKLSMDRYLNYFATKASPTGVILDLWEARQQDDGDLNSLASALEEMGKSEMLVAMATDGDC
# These are yes or no findings as the source states them, for the method shown. In cells and extracts the contact can be indirect. Some results given as binding are weak or reduced against the parent protein; the word gives no strength.
# Key:
# [1] = target: UNC5B-FL (Unc-5 Netrin Receptor B, isoform with exon 8), GFP-tagged (mouse) (UniProt Q8K1S3); assay: co-IP; HeLa cells co-transfected with GFP-tagged and HA-tagged UNC5B isoforms, treated with Netrin-1 (150 ng/ml) or PBS/0.2% BSA for 30 min; GFP-trap magnetic beads 1 h at 4 °C; IP buffer 50 mM HEPES pH 7.6, 150 mM NaCl, 5 mM EDTA, 0.1% NP-40; immunoblot
# [2] = target: UNC5B-Δ8 (UNC5B splicing isoform lacking exon 8), GFP-tagged (mouse) (UniProt Q8K1S3); assay: as above
binding [1],binding [2],Substance
binds,,"UNC5B-FL (Unc-5 Netrin Receptor B, isoform with exon 8), GFP-tagged (from UniProt Q8K1S3 27-945)"
,binds,"UNC5B-Δ8 (UNC5B splicing isoform lacking exon 8), GFP-tagged (from UniProt Q8K1S3 27-945) (receptor)"
